We go through 36 molecules from PubChem BioAssay AID2685 (National Center for Advancing Translational Sciences (NCATS), 2010).

The nature of this assay: qHTS Assay for Lipid Storage Modulators in Drosophila S3 Cells.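 For cell number change: cells counted by Cell Tracker Red CMTPX staining in the red channel.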 The settings on record: BODIPY lipid droplet fluorescence, 18-24 h; for cell number change: measured here: cell count max response, cells fed with added oleic acid. The method in brief: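 Laser-scanning cytometry quantifies lipid droplet accumulation (500–530 nm total intensity; droplet/cell object ratio) in oleic acid-fed (400 uM added) Drosophila S3 cells treated with a concentration series. 20 uM Triacsin C defined 100% inhibition.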
On the technique in general: Quantitative high-throughput screening tests each substance at several concentrations.

[1] abbreviates: measured here: cell number channel AC50, cells fed with added oleic acid.
Setting [2] is: measured here: lipid fluorescence (Fed channel) AC50, cells fed with added oleic acid.

This is one part of the list. The main result of the screen is listed elsewhere. These columns were measured beside it and carry no call. Most of these compounds were active or inconclusive in the main read-out, so they are no random draw. The note in brackets gives the kind of curve behind each potency; many fits are weak.

By AC50 is commonly meant the concentration giving half of the maximal activity seen. On to `O=C(O)c1ccc(S(=O)(=O)N(Cc2ccccc2)Cc2ccccc2)cc1`, for which the AC50 under setting [1] was 0.82 µM [rising, full curve, poor fit] and the AC50 under setting [2] is 0.731 µM [rising, full curve].

With `CCN1CCN(c2ccc(S(=O)(=O)N3CCOCC3)cc2NC(=O)/C=C/c2ccc(OC)cc2OC)CC1`, the cell number change came to 43.8%. For the same molecule, the half-maximal activity concentration (AC50) under setting [1] is 2.59 µM [rising, full curve, poor fit].

As to `O=C(O)C1CSC(c2ccco2)N1` (configuration not stated), the AC50 under setting [2] is 2.91 µM [rising, full curve, poor fit].

On to `O=C(/C=C/c1c(Cl)cccc1Cl)n1cccn1`, for which the cell number change is -42%. Further, under setting [1], the AC50 is 20.6 µM [falling, partial curve]. Under setting [2], the AC50 is 16.4 µM [falling, partial curve].

As for `CCOC(=O)Cc1csc(NC(=O)c2ccc(S(=O)(=O)N3CCOCC3)cc2)n1`, the cell number change stood at 7.92%. For the same molecule, the AC50 under setting [2] is 0.731 µM [falling, partial curve, poor fit].

With `Cc1[nH]nc2c1C(C1CC=CCC1)C(C#N)=C(N)O2` (configuration not stated), the cell number change is -4.45%.

On to `CCN(c1cccc(C)c1)S(=O)(=O)c1cc(CN2C(=O)c3cccnc3C2=O)ccc1OC`, for which the AC50 under setting [2] was 4.11 µM [falling, full curve].

As to `O=C(CCC1CCN(Cc2ccccc2O)CC1)NC1CC1`, the cell number change turned out to be 16.1%. Also, the AC50 under setting [2] was 0.517 µM [falling, full curve, poor fit].

As for `Cc1ccc2[nH]c(=O)c(CN(Cc3ccc4c(c3)OCO4)Cc3nnnn3C3CCCC3)cc2c1`, the cell number change is -76.3%. In addition, under setting [1], the AC50 is 29.1 µM [falling, single point]. For the same molecule, under setting [2], the AC50 was 0.326 µM [rising, full curve, poor fit].

Regarding `CCC(=O)Oc1ccc(NC(=O)c2ccco2)cc1`, the cell number change came out at 81.2%. For the same molecule, the concentration at half-maximal activity (AC50) under setting [1] was 0.0146 µM [rising, single point].

Consider `CCOc1ccc(NC(=O)C2CCN(S(=O)(=O)c3cccs3)CC2)cc1`, for which the cell number change was -0.901%.

Regarding `O=C(NC(=S)NC(c1ccccc1)c1ccncc1)c1ccccc1` (configuration not stated), the cell number change came out at 2.12%. The AC50 under setting [2] is 0.00461 µM [rising, full curve, poor fit].

For the molecule `CCOc1c(Br)cc(C(N)=O)cc1OC`, the cell number change was -31.4%. Also, the AC50 under setting [1] was 3.26 µM [falling, partial curve, poor fit]. Moreover, under setting [2], the AC50 is 29.1 µM [rising, single point].

For the molecule `COc1ccc(N2CCN(C(=O)C(=O)c3c[nH]c4ccccc34)CC2)cc1`, the cell number change is -16.7%. Besides, the AC50 under setting [2] is 11.6 µM [rising, partial curve, poor fit].

Consider `Cn1c(COc2ccccc2)nnc1SCCSc1nnc(COc2ccccc2)n1C`, for which the cell number change is -17.7%. The AC50 under setting [1] was 0.651 µM [falling, full curve, poor fit]. In addition, the AC50 under setting [2] is 6.51 µM [falling, single point].

As to `CN1C(=O)C(C)(C)c2cc(S(=O)(=O)N3CCCC3C(=O)NCc3ccccc3Cl)ccc21` (configuration not stated), the cell number change is -16.7%. Further, the AC50 under setting [2] is 0.00517 µM [falling, full curve, poor fit].

Consider `Cc1ccc(C(=O)CSc2nnc(C3CC3)n2C2CC2)s1`, for which the cell number change was -4.52%. Besides, under setting [2], the AC50 was 3.66 µM [falling, single point].

As to `CCOc1ccc(C(C)=O)cc1CSc1nc2nc(C)cc(C)n2n1`, under setting [2], the AC50 was 0.461 µM [falling, single point].

As to `COc1ccc(CC(=O)NCc2nnc(SCC(=O)Nc3ncc(C)s3)n2C)cc1`, the cell number change amounted to 12.9%.

Regarding `Cc1ccccc1NC(=O)CSc1nc2ccccc2c2nc(CCn3cncc3C)nn12`, the cell number change is -1.59%. Further, the AC50 under setting [2] was 0.92 µM [rising, partial curve].

Turning to `CS(=O)(=O)N1CCc2cc(C(=O)Nc3cccc([N+](=O)[O-])c3)ccc21`, the cell number change is 2.05%. Moreover, under setting [2], the AC50 is 29.1 µM [rising, single point].

As for `Cn1c2ccccc2c2nn(-c3ccccc3)c(=O)cc21`, the cell number change is -16%.

For the molecule `Cc1nc(C)c(C(=O)OCC(=O)NCc2ccccc2)s1`, the half-maximal activity concentration (AC50) under setting [2] is 0.82 µM [falling, full curve].

Take `Cc1ccc(-c2noc(-c3ccccc3C(=O)NCc3ccco3)n2)cc1`: the cell number change turned out to be 9.55%. For the same molecule, the AC50 under setting [1] was 0.00411 µM [rising, full curve, poor fit]. The AC50 under setting [2] was 0.00517 µM [rising, full curve, poor fit].

`CCc1nnc(NC(=O)C2c3ccccc3Oc3ccccc32)s1`: the cell number change was -22.7%. Under setting [2], the AC50 was 5.8 µM [falling, single point].

In the case of `O=C(OC(C(=O)NCc1cccs1)c1ccc(F)cc1)c1ccco1` (configuration not stated), the cell number change turned out to be 3.17%. The AC50 under setting [2] was 2.59 µM [rising, partial curve, poor fit].

Consider `Clc1cccc2sc(N3CCCCC3)nc12`, for which the cell number change stood at 6.8%. Moreover, the AC50 under setting [1] is 1.16 µM [falling, full curve, poor fit]. Further, under setting [2], the AC50 was 0.731 µM [falling, full curve].

In the case of `COc1ccc(NC(=O)Cc2cccc(F)c2)cc1S(=O)(=O)Nc1ccccc1Cl`, the cell number change worked out at 6.28%. Also, under setting [2], the AC50 was 5.8 µM [rising, single point].

Turning to `COc1ccc(CN2C(=O)CN(C3CCCCCC3)C(=O)C2c2ccc(F)cc2)cc1` (configuration not stated), the cell number change worked out at 18.5%. For the same molecule, the concentration at half-maximal activity (AC50) under setting [2] was 7.31 µM [rising, partial curve].

As to `CCCn1nnc(NC(=S)NC(=O)/C=C/c2ccco2)n1`, the cell number change came to 30.6%. Moreover, the half-maximal activity concentration (AC50) under setting [1] is 25.9 µM [rising, partial curve].

Turning to `c1csc(-c2cc(N3CCCCC3)c3ccccc3n2)c1`, the cell number change turned out to be 92.2%. Also, the AC50 under setting [1] was 9.2 µM [rising, partial curve]. The concentration at half-maximal activity (AC50) under setting [2] is 8.2 µM [rising, partial curve].

Regarding `COc1ccc(CC(=O)Nc2c(C(N)=O)oc3ccccc23)cc1OC`, the cell number change stood at 20.7%. Also, the AC50 under setting [1] is 4.61 µM [rising, partial curve].

Consider `CCOC(=O)c1ccc(NC(=O)c2nc(SC)ncc2Cl)cc1`, for which the cell number change was found to be 15.6%. Moreover, the AC50 under setting [2] is 2.91 µM [falling, single point].

In the case of `COc1ccc(-c2csc(NC(=O)C3=COCCO3)n2)c(OC)c1`, the cell number change was -16.6%. The AC50 under setting [2] is 29.1 µM [falling, single point].

For the molecule `COC(=O)[C@@H]1CC[C@H](C)[C@@H](c2ccc(C)cc2)N1C(=O)c1ccc(/C=N/O[C@H](C)c2cn([C@@H]3COC[C@H]3O)nn2)cc1`, the cell number change is -1.34%. The AC50 under setting [2] is 32.6 µM [rising, single point].

`O=C(CCCN1C(=O)c2cccc3cccc(c23)C1=O)N1CCc2ccccc2C1`: the cell number change was -40.8%. In addition, the AC50 under setting [1] was 11.6 µM [falling, partial curve]. In addition, the AC50 under setting [2] is 13 µM [falling, partial curve, poor fit].
